Legend:
Escherichia coli = test: Antibacterial activity against Escherichia coli assessed as reduction in bacterial cell viability incubated for 24 hrs by serial dilution assay; format: functional
Candida albicans = test: Antifungal activity against Candida albicans assessed as reduction in fungal cell growth incubated for 48 hrs by serial dilution assay; format: functional

COc1ccc(NC(=O)/C=C/c2ccccc2)cc1 [N-(4-METHOXYPHENYL)CINNAMAMIDE]
log(1/MIC) (Escherichia coli): 2.43
log(1/MIC) (Candida albicans): 2.43

From ChEMBL document CHEMBL4359862, “Cinnamamide: An insight into the pharmacological advances and structure-activity relationships” (Eur J Med Chem, 2019)
